Values from PubChem BioAssay AID602196 (INSERM, 2012).
Test: 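Knock-downs that protect lung cancer cells from cisplatin or sensitise them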. System: human A549 lung cancer cells. Reagent: siRNA pair against human genes. Timing: 48 h transfection before cisplatin; time from cisplatin to read-out not stated. Challenge: cisplatin at a dose killing half of control-siRNA cells; exact dose and duration not given. Detection: 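Cisplatin cell death as a shift from the 50% death seen with control siRNA; siRNAs toxic or growth-blocking alone scored 0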. Reading the numbers: two-siRNA summed score (-2 to +2): higher = both siRNAs protect from cisplatin killing; -2 means both sensitise. Rule for the call: 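Each siRNA scores 0 if harmful alone by LDH or WST-1, otherwise +1 if it reduces and -1 if it increases cisplatin killing; a gene is active when both siRNAs agree (sum +2 or -2)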. Meaning of the calls: active = both siRNAs shift cisplatin killing the same way; inactive = no consistent shift, or siRNA harmful alone.
In all, the deposit lists about 23,000 reagents; this is a random part of them. Over the whole deposit, 455 (2%) got an active call. 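Active includes both protection and sensitisation; some change values fall well beyond the stated -50 to +50 range.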 Further read-outs or replicates are left out here. Not stated in the record: the amount of reagent.

The first 2 records as a preview:
target | two-siRNA summed score (-2 to +2) | Outcome
BYSL | -1 | inactive
LOC442265 | 1 | inactive

Main list, from the start:
target | two-siRNA summed score (-2 to +2) | Outcome
BYSL | -1 | inactive
LOC442265 | 1 | inactive
TMX2 | -1 | inactive
TRIM34 | 0 | inactive
TMX4 | 0 | inactive
GRK2 | 0 | inactive
MYL10 | 0 | inactive
EHBP1L1 | 1 | inactive
BRMS1L | 1 | inactive
ZNF597 | 0 | inactive
GLT8D2 | 0 | inactive
VCY | 0 | inactive
LOC401893 | -1 | inactive
LOC402505 | 0 | inactive
LOC441158 | 0 | inactive
PSG7 | 1 | inactive
LBP | 0 | inactive
LOC391711 | 1 | inactive
ALKBH8 | 0 | inactive
YEATS2 | -1 | inactive
ZNF746 | 0 | inactive
RPL35P10 | 1 | inactive
LCP1 | 1 | inactive
